# Laboratory results: the supplement of paper PMC4635364
# Counter-ions that a name gives are not always drawn. This is one part of the list. Single values are uncertain here, since repeats match poorly.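 Human fetal ventral-midbrain neural progenitor line ReNCell VM, differentiated without mitogens. Images stained for doublecortin (early neurons) or tyrosine hydroxylase (dopaminergic neurons) were scored by blinded raters against untreated wells (0 = no change). Repeats and both raters were averaged, and compounds averaging 2 or higher were picked as hits for retesting.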
# Legend:
# ReNCell VM [1] = assay: neuronal differentiation score (DCX+ cell fraction vs untreated, manual image score) (score (-3 to 3)); higher = more neuronal differentiation; conditions: 2 uM, 2 weeks
# ReNCell VM [2] = assay: dopaminergic neuron differentiation score (TH+ cell fraction vs untreated, manual image score) (score (0 to 3)); higher = more TH+ dopaminergic neuron differentiation; conditions: 2 uM, 4 weeks, BDNF 10 ng/ml + GDNF 10 ng/ml
smiles,measurement,setting,value
CCc1cc(Cl)c(OC)c(C(=O)NC[C@@H]2CCCN2CC)c1O,neuronal differentiation score,ReNCell VM [1]; library: Spectrum,inactive: 0
same,dopaminergic neuron differentiation score,ReNCell VM [2]; library: Spectrum,inactive: 0
COc1ccc(CC2c3cc(OC)c(OC)cc3CC[N+]2(C)CCC(=O)OCCCCCOC(=O)CC[N+]2(C)CCc3cc(OC)c(OC)cc3C2Cc2ccc(OC)c(OC)c2)cc1OC (configuration not stated) [Atracurium besylate],neuronal differentiation score,ReNCell VM [1]; library: Prestwick,inactive: 0
same,dopaminergic neuron differentiation score,ReNCell VM [2]; library: Prestwick,inactive: 0
CC(C)NC[C@H](O)COc1cccc2ccccc12 [(S)-(-)-Propranolol hydrochloride],neuronal differentiation score,ReNCell VM [1]; library: Tocriscreen,inactive: 0
same,dopaminergic neuron differentiation score,ReNCell VM [2]; library: Tocriscreen,inactive: 0
O=C1CN(/N=C/c2ccc(-c3ccc([N+](=O)[O-])cc3)o2)C(=O)N1,neuronal differentiation score,ReNCell VM [1]; library: Spectrum,inactive: 0
same,dopaminergic neuron differentiation score,ReNCell VM [2]; library: Spectrum,inactive: 0
NCCNS(=O)(=O)c1cccc2c(Cl)cccc12 [A3 hydrochloride],neuronal differentiation score,ReNCell VM [1]; library: LOPAC,inactive: 0
same,dopaminergic neuron differentiation score,ReNCell VM [2]; library: LOPAC,inactive: 0
CC[C@H](/C=C/[C@@H](C)[C@H]1CC[C@H]2[C@@H]3CC=C4C[C@@H](O)CC[C@]4(C)[C@H]3CC[C@]12C)C(C)C,neuronal differentiation score,ReNCell VM [1]; library: Spectrum,inactive: 0
same,dopaminergic neuron differentiation score,ReNCell VM [2]; library: Spectrum,inactive: 0
NC[C@H]1O[C@H](O[C@H]2[C@H](O)[C@@H](O[C@H]3O[C@H](CO)[C@@H](O)[C@H](N)[C@H]3O)[C@H](N)C[C@@H]2N)[C@H](N)[C@@H](O)[C@@H]1O,neuronal differentiation score,ReNCell VM [1]; library: Spectrum,inactive: 0
same,dopaminergic neuron differentiation score,ReNCell VM [2]; library: Spectrum,inactive: 0
CCCCCN(C)CCC(O)(P(=O)(O)O)P(=O)(O)O [Ibandronate sodium],neuronal differentiation score,ReNCell VM [1]; library: Prestwick,inactive: 0
same,dopaminergic neuron differentiation score,ReNCell VM [2]; library: Prestwick,inactive: 0
C[C@@H]1C[C@H]2[C@@H]3CCC4=CC(=O)C=C[C@]4(C)[C@@]3(Cl)[C@@H](O)C[C@]2(C)[C@@]1(OC(=O)c1ccco1)C(=O)CCl,neuronal differentiation score,ReNCell VM [1]; library: Spectrum,inactive: 0
same,dopaminergic neuron differentiation score,ReNCell VM [2]; library: Spectrum,inactive: 0
Clc1cccc(Nc2nnc(-c3ccccc3)c3ccccc23)c1,neuronal differentiation score,ReNCell VM [1]; library: Tocriscreen,inactive: 0
same,dopaminergic neuron differentiation score,ReNCell VM [2]; library: Tocriscreen,inactive: 0
O=C(O)CN(CC(=O)O)Cc1cc2c(cc1O)Oc1cc(O)c(CN(CC(=O)O)CC(=O)O)cc1C21OC(=O)c2ccccc21,neuronal differentiation score,ReNCell VM [1]; library: Spectrum,inactive: 0
same,dopaminergic neuron differentiation score,ReNCell VM [2]; library: Spectrum,inactive: 0
CC(c1cc2ccccc2s1)N(O)C(N)=O (configuration not stated) [Zileuton],neuronal differentiation score,ReNCell VM [1]; library: Prestwick,inactive: 0
same,dopaminergic neuron differentiation score,ReNCell VM [2]; library: Prestwick,inactive: 0
CC(CCc1ccccc1)NCC(O)c1ccc(O)c(C(N)=O)c1 (configuration not stated),neuronal differentiation score,ReNCell VM [1]; library: Spectrum,inactive: 0
same,dopaminergic neuron differentiation score,ReNCell VM [2]; library: Spectrum,inactive: 0
COc1ccc(C[C@H](N)C(=O)N[C@H]2[C@@H](O)[C@H](n3cnc4c(N(C)C)ncnc43)O[C@@H]2CO)cc1,neuronal differentiation score,ReNCell VM [1]; library: Spectrum,inactive: 0
same,dopaminergic neuron differentiation score,ReNCell VM [2]; library: Spectrum,inactive: 0
CC/C(=C(/CC)c1ccc(O)cc1)c1ccc(O)cc1 [Diethylstilbestrol],neuronal differentiation score,ReNCell VM [1]; library: Prestwick,inactive: 0
same,dopaminergic neuron differentiation score,ReNCell VM [2]; library: Prestwick,inactive: 0
CC1=C2C(/C=C(\C)C(=O)O)CCC(C)C2C(O)C1 (configuration not stated) [valerenolic acid],neuronal differentiation score,ReNCell VM [1]; library: Natural,inactive: 0
same,dopaminergic neuron differentiation score,ReNCell VM [2]; library: Natural,inactive: 0
COc1ccc(C(=CC(=O)O)c2nccc3cc(OC)c(OC)cc23)cc1OC,neuronal differentiation score,ReNCell VM [1]; library: Natural,inactive: 0
same,dopaminergic neuron differentiation score,ReNCell VM [2]; library: Natural,inactive: 0
COCCNC(=O)COc1ccc(OCCNC[C@H](O)COc2ccccc2)cc1 [ZD 7114 hydrochloride],neuronal differentiation score,ReNCell VM [1]; library: Tocriscreen,inactive: 0
same,dopaminergic neuron differentiation score,ReNCell VM [2]; library: Tocriscreen,inactive: 0
CCS(=O)(=O)CCn1c([N+](=O)[O-])cnc1C [Tinidazole],neuronal differentiation score,ReNCell VM [1]; library: Prestwick,inactive: 0
same,dopaminergic neuron differentiation score,ReNCell VM [2]; library: Prestwick,inactive: 0
O=C1C[C@@H](c2ccc(O)cc2)Oc2cc(O)cc(O)c21 [Naringenine],neuronal differentiation score,ReNCell VM [1]; library: Phytochemical,inactive: 0
same,dopaminergic neuron differentiation score,ReNCell VM [2]; library: Phytochemical,inactive: 0
c1ccc(-c2ccc(C(c3ccccc3)n3ccnc3)cc2)cc1 (configuration not stated) [Bifonazole],neuronal differentiation score,ReNCell VM [1]; library: Prestwick,inactive: 0
same,dopaminergic neuron differentiation score,ReNCell VM [2]; library: Prestwick,active: 3
CCC1(C)OC(=O)N(C)C1=O (configuration not stated),neuronal differentiation score,ReNCell VM [1]; library: Spectrum,inactive: 0
same,dopaminergic neuron differentiation score,ReNCell VM [2]; library: Spectrum,inactive: 0
OC[C@H]1O[C@@H](n2cnc3c(NCc4ccco4)ncnc32)[C@H](O)[C@@H]1O [Kinetin riboside],neuronal differentiation score,ReNCell VM [1]; library: Phytochemical,inactive: 0
same,dopaminergic neuron differentiation score,ReNCell VM [2]; library: Phytochemical,inactive: 0
Cn1c(=O)c2c(ncn2CC2OCCO2)n(C)c1=O,neuronal differentiation score,ReNCell VM [1]; library: Spectrum,inactive: 0
same,dopaminergic neuron differentiation score,ReNCell VM [2]; library: Spectrum,inactive: 0
NC(=O)c1cnccn1,neuronal differentiation score,ReNCell VM [1]; library: Spectrum,inactive: 0
same,dopaminergic neuron differentiation score,ReNCell VM [2]; library: Spectrum,inactive: 0
COc1c2c(cc3c1c(=O)c1ccccc1n3C)OCO2 [Evoxanthine],neuronal differentiation score,ReNCell VM [1]; library: Phytochemical,inactive: 0
same,dopaminergic neuron differentiation score,ReNCell VM [2]; library: Phytochemical,inactive: 0
CCN1CCCC1CNC(=O)c1cc(S(=O)(=O)CC)c(N)cc1OC (configuration not stated),neuronal differentiation score,ReNCell VM [1]; library: Spectrum,inactive: 0
same,dopaminergic neuron differentiation score,ReNCell VM [2]; library: Spectrum,inactive: 0
COc1cc(O)c(C(C)=O)c(OC)c1,neuronal differentiation score,ReNCell VM [1]; library: Spectrum,inactive: 0
same,dopaminergic neuron differentiation score,ReNCell VM [2]; library: Spectrum,inactive: 0
O=c1[nH]c(=O)n([C@H]2C[C@H](O)[C@@H](CO)O2)cc1C(F)(F)F [Trifluridine],neuronal differentiation score,ReNCell VM [1]; library: Prestwick,inactive: 0
same,dopaminergic neuron differentiation score,ReNCell VM [2]; library: Prestwick,inactive: 0
Cc1c(NC(=O)c2cccnc2)c(=O)n(-c2ccccc2)n1C,neuronal differentiation score,ReNCell VM [1]; library: Spectrum,inactive: 0
same,dopaminergic neuron differentiation score,ReNCell VM [2]; library: Spectrum,inactive: 0
Nc1nc(OCc2ccccc2)c2nc[nH]c2n1 [O6-benzylguanine],neuronal differentiation score,ReNCell VM [1]; library: LOPAC,inactive: 0
same,dopaminergic neuron differentiation score,ReNCell VM [2]; library: LOPAC,inactive: 0

# An excerpt from the list above:
smiles,measurement,setting,value
CC[C@H](/C=C/[C@@H](C)[C@H]1CC[C@H]2[C@@H]3CC=C4C[C@@H](O)CC[C@]4(C)[C@H]3CC[C@]12C)C(C)C,dopaminergic neuron differentiation score,ReNCell VM [2]; library: Spectrum,inactive: 0
NC[C@H]1O[C@H](O[C@H]2[C@H](O)[C@@H](O[C@H]3O[C@H](CO)[C@@H](O)[C@H](N)[C@H]3O)[C@H](N)C[C@@H]2N)[C@H](N)[C@@H](O)[C@@H]1O,neuronal differentiation score,ReNCell VM [1]; library: Spectrum,inactive: 0
same,dopaminergic neuron differentiation score,ReNCell VM [2]; library: Spectrum,inactive: 0
CCCCCN(C)CCC(O)(P(=O)(O)O)P(=O)(O)O [Ibandronate sodium],neuronal differentiation score,ReNCell VM [1]; library: Prestwick,inactive: 0
